Test results reported in PMC5823873.
Results are given in words; binding and its absence hold for the method and conditions named. In cells and extracts the contact can be indirect. Some binding calls cover weakened binding; strength is not graded here.

Sequences of proteins named here, by UniProt entry; tags and fusion partners are left off. A change or cut given only in a name is not applied to a line headed by its entry. A line that says so, or that is headed by a name, gives the form on record, which may keep a tag or linker.
TRPC4β (Q9QUQ5, form named): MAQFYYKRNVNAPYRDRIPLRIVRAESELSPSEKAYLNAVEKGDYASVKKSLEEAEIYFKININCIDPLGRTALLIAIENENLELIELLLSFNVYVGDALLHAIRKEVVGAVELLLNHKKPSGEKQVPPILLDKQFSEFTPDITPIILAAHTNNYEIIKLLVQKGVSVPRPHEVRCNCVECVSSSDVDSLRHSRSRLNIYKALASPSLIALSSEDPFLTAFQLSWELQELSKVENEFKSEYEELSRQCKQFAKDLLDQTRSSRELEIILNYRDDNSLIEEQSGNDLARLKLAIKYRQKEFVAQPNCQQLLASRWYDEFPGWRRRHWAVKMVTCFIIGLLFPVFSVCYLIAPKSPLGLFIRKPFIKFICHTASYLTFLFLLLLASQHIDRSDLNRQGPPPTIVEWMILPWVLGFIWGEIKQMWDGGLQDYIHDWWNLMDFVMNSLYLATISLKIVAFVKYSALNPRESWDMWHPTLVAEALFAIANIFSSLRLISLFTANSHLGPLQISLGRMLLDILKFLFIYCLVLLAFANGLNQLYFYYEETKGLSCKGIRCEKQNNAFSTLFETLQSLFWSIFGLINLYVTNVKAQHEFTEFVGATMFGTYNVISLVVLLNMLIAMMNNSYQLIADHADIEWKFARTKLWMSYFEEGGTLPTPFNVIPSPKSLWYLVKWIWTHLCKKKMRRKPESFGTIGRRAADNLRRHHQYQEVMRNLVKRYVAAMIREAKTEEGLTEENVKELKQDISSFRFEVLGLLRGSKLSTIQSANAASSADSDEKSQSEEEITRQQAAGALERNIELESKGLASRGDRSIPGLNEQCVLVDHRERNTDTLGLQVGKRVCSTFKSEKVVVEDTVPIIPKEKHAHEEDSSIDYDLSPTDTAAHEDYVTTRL
UniProt P08754: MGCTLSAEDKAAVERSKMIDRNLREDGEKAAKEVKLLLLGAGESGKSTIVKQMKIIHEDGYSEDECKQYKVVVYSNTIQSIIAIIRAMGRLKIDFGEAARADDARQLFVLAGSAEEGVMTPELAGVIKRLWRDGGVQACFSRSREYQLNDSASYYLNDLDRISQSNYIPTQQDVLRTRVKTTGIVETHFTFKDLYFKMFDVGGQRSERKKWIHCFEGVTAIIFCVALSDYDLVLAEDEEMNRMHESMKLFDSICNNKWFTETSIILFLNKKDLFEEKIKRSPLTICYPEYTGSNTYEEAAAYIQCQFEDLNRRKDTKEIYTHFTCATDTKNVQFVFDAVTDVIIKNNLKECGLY

Target: TRPC4β (UniProt Q9QUQ5)
Assay: co-IP; TRPC4β and Gαi3 in HEK293 cells, with or without co-expressed PC1(FL); which protein was precipitated is not told

Question: For Gαi3 (from UniProt P08754 1-354), which binding is on record?
Answer: binds
